Test results reported in doi:10.1101/2022.03.14.484356 (bioRxiv, 2022).
Like-named read-outs stand apart in the source and are kept apart here. Results are given in words; binding and its absence hold for the method and conditions named. For some of these results: In cells and extracts the contact can be indirect. Some entries that bind do so weakly or less than the wild type. For some of these results: Where a sequence is shown, tags or fusion partners need not be part of it.

Amino acid sequences for entries named in this document (tags omitted).
UniProt P62491: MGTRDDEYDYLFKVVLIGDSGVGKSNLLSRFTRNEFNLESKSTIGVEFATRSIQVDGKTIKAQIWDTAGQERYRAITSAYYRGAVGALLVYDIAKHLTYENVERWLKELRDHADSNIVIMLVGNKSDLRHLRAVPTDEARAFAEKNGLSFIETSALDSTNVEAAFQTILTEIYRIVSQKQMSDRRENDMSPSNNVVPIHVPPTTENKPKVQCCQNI

Assays:
[1] = molecular target: T1, Flag-tagged RABL3 (RAB-Like 3), wild type (human) (UniProt Q5HYI8); assay: co-IP
T1 sequence: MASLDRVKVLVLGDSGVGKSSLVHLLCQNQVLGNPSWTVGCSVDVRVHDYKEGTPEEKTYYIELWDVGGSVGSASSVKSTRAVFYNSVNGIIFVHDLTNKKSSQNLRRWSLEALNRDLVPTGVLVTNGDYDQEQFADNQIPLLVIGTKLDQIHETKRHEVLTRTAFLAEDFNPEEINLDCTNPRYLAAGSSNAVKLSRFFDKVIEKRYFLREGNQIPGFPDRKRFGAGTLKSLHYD

[2] = molecular target: GFP-fused RAB11A, wild type (human) (UniProt P62491); assay: co-IP
[3] = molecular target: recombinant GST-RAB11A (human) (UniProt P62491); assay: pull-down
[4] = molecular target: recombinant GST-RAB11A (human) (UniProt P62491); assay: pull-down; remark: listed apart in the source

## GFP-fused RAB11A, wild type (from UniProt P62491 1-216)
[1]
  binding: binds

B1: Flag-tagged RABL3 (RAB-Like 3), wild type (protein, UniProt Q5HYI8 1-236)
chain: MASLDRVKVLVLGDSGVGKSSLVHLLCQNQVLGNPSWTVGCSVDVRVHDYKEGTPEEKTYYIELWDVGGSVGSASSVKSTRAVFYNSVNGIIFVHDLTNKKSSQNLRRWSLEALNRDLVPTGVLVTNGDYDQEQFADNQIPLLVIGTKLDQIHETKRHEVLTRTAFLAEDFNPEEINLDCTNPRYLAAGSSNAVKLSRFFDKVIEKRYFLREGNQIPGFPDRKRFGAGTLKSLHYD
[2]
  binding: binds

B2: recombinant RABL3 (protein, UniProt Q5HYI8 1-236)
chain: MASLDRVKVLVLGDSGVGKSSLVHLLCQNQVLGNPSWTVGCSVDVRVHDYKEGTPEEKTYYIELWDVGGSVGSASSVKSTRAVFYNSVNGIIFVHDLTNKKSSQNLRRWSLEALNRDLVPTGVLVTNGDYDQEQFADNQIPLLVIGTKLDQIHETKRHEVLTRTAFLAEDFNPEEINLDCTNPRYLAAGSSNAVKLSRFFDKVIEKRYFLREGNQIPGFPDRKRFGAGTLKSLHYD
[3]
  binding: no binding (condition: with 10 μM GTPγS)
[4]
  binding: no binding (condition: with 10 μM GDP)
